Laboratory results: PubChem BioAssay AID1259405 (NCATS, 2018)

Aim: 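Silenced genes that increase secreted GFP made by CHO cells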 (primary screen)
Cells: Chinese hamster CHO-K1 ovary cells with stable secreted eGFP expression
Knock-down reagent: single siRNA against mouse genes, 0.8 pmol siRNA per well (2 µl of 400 nM stock)
Duration: 3 days
Measurement: 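Percent of the per-plate non-targeting control median for intracellular GFP per well by laser scanning cytometry and for cell viability by ATP luminescence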
Direction: GFP, % of control: higher = more GFP per well, higher productivity; viability (ATP), % of control: higher = more viable cells (more ATP)
Hit rule: 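a knock-down is called active if GFP reaches 120% or more of non-targeting control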
The deposit covers about 50,000 reagents; below is an unselected part. About 4,000 of all reagents (8%) count as active. 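Mouse siRNA library applied to hamster cells; one well for each siRNA.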

gene symbol	PubChem SID	GFP, % of control	viability (ATP), % of control	Call
Sema3d	SID363572514	85.8	78	inactive
Sema3d	SID363577794	95.5	68	inactive
Sema3d	SID363582018	91.1	75.8	inactive
Cd4 (CD4 antigen)	SID363568619	55.5	66.8	inactive
Cd4 (CD4 antigen)	SID363576011	81.4	67.1	inactive
Cd4 (CD4 antigen)	SID363578827	97.1	75.6	inactive
Dapk3 (death-associated protein kinase 3)	SID363570930	81.9	52.4	inactive
Or11q2 (olfactory receptor family 11 subfamily Q member 2)	SID363544683	83.8	56.1	inactive
Or11q2 (olfactory receptor family 11 subfamily Q member 2)	SID363551011	82.9	90.7	inactive
Or11q2 (olfactory receptor family 11 subfamily Q member 2)	SID363557560	50.9	21.5	inactive
Alg2 (ALG2 alpha-1,3/1,6-mannosyltransferase)	SID363570560	86.5	97.5	inactive
Alg2 (ALG2 alpha-1,3/1,6-mannosyltransferase)	SID363579360	98.8	155	inactive
Alg2 (ALG2 alpha-1,3/1,6-mannosyltransferase)	SID363583232	135	102	active
Myo1f (myosin IF)	SID363572174	103	92.1	inactive
Myo1f (myosin IF)	SID363573934	39.3	53.6	inactive
Rab31 (RAB31, member RAS oncogene family)	SID363570429	83	111	inactive
Rab31 (RAB31, member RAS oncogene family)	SID363579229	93.9	103	inactive
Rab31 (RAB31, member RAS oncogene family)	SID363583101	87.9	101	inactive
Cdh8 (cadherin 8)	SID363572990	112	77.4	inactive
Cdh8 (cadherin 8)	SID363577566	62.1	44	inactive
Cdh8 (cadherin 8)	SID363581086	123	82	active
Insl5 (insulin-like 5)	SID363540379	48.6	68.1	inactive
Insl5 (insulin-like 5)	SID363542131	84.9	73.1	inactive
Insl5 (insulin-like 5)	SID363567047	119	84.3	inactive
Jmjd1c (jumonji domain containing 1C)	SID363573375	87.1	65	inactive
Jmjd1c (jumonji domain containing 1C)	SID363588614	90.5	88.4	inactive
Hesx1 (homeobox gene expressed in ES cells)	SID363569443	49.5	39.9	inactive
Hesx1 (homeobox gene expressed in ES cells)	SID363577187	77.8	66.6	inactive
Hesx1 (homeobox gene expressed in ES cells)	SID363578595	96.4	81.4	inactive
Naxd (NAD(P)HX dehydratase)	SID363540649	88.8	89.5	inactive
Naxd (NAD(P)HX dehydratase)	SID363543100	104	76.3	inactive
Naxd (NAD(P)HX dehydratase)	SID363552593	82.9	67.3	inactive
BC051665 (cDNA sequence BC051665)	SID363547264	70	79.6	inactive
BC051665 (cDNA sequence BC051665)	SID363558033	44.7	50.5	inactive
BC051665 (cDNA sequence BC051665)	SID363559791	47.9	74.8	inactive
